# The campaign covered roughly 310,000 compounds. About 17,000 (5.5%) were called active. Inconclusive results, whose numbers are uncertain, are shown with a selection of clear calls. Calls come from the whole dose curve; as a rule, active = well fitted inhibition curve with a large enough effect; inconclusive = small, poorly fitted or top-dose-only effect, or effect the other way; inactive = no such curve, though single readings can be large or run the other way. Potencies of inconclusive entries are doubtful fits and often do not repeat.
# Amino acid sequences for entries named in this document (tags omitted). A change or cut given only in a name is not applied to a line headed by its entry.
# UniProt P51450: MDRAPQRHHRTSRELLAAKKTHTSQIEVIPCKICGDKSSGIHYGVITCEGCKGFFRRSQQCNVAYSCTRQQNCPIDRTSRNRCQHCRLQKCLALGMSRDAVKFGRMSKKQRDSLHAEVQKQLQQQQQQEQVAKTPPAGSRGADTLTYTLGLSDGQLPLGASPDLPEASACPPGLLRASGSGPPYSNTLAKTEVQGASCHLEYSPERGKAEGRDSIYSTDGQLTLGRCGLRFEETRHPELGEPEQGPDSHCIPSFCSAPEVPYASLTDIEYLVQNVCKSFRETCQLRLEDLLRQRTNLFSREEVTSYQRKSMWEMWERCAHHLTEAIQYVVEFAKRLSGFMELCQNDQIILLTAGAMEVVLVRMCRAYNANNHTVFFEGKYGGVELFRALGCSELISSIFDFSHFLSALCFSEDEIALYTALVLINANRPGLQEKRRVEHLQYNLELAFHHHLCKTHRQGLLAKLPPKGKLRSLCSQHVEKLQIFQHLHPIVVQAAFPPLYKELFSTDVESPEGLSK
# Biological target: Nuclear receptor ROR-gamma (Mus musculus) (UniProt P51450)
# Test: qHTS for inhibitors of ROR gamma transcriptional activity; note: nearly all actives have a fitted effect of over 60% in size
# Settings: Drosophila S2 Gal4-RORgamma UAS-luciferase reporter, 20 h; activity change, negative = inhibition: at 53.6 µM (top of the series)
# Procedure, shortened: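 In this cell-based reporter format, copper sulfate (700 uM final) drives Gal4–ROR gamma fusion expression from a metallothionein promoter in Drosophila Schneider cells; compounds preincubated 1 hr, reporter read after 20 hr at ambient temperature.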
# % is set by controls: 0 for no effect and ±100 for the full control effect; potency is the fitted concentration of half-maximal effect.
SMILES,Potency,"activity change, negative = inhibition"
CCc1cccc(CC)c1NC(=S)NCCc1ccc(O)c(O)c1,active: 12.6 µM,–
O=C(O)CCC1CCCC1,inactive,–
CN(C)S(=O)(=O)N1CCC(C(=O)O)(c2ccccc2)CC1,"inconclusive: 35.5 µM [inhibitor, single point]",–
COc1ccc(C(=O)Nc2ccc(C)cn2)c(OC)c1,active: 3.98 µM,–
COc1cc2c(cc1NC(=S)NC(=O)c1c(OC)cccc1OC)oc1ccccc12,active: 3.55 µM,–
O=C1[C@@H]2C[C@@H]3C[C@H]1C[C@@](O)(C3)C2,inactive,–
COC(=O)C1=C(C(=O)OC)SC(=C2C(=S)C(C)(C)N(C(=O)CC(C)C)c3ccccc32)S1,inactive,–
CCCc1cc(=O)n2[nH]c(C)c(-c3ccccc3)c2n1,active: 7.08 µM,–
O=c1oc2c(-c3ccc([N+](=O)[O-])cc3)cc(O)cc2s1,inactive,–
CC(=O)c1cn(CC(=O)NCc2ccco2)c2ccccc12,"inconclusive: 17.8 µM [activator, partial curve, poor fit]",–
COC(=O)Nc1ccc(S(=O)(=O)NC2CCCCC2)cc1,"inconclusive: 35.5 µM [activator, single point]",–
O=C(/C=C/c1ccccc1)CC(O)(c1ccccc1)C(F)(F)C(F)F (configuration not stated),"inconclusive: 11.2 µM [inhibitor, single point]",–
CCOc1ccc(Nc2nc(CC(=O)OC)cc(=O)[nH]2)cc1,inactive,–
CN(C)/C=N/c1nc2ccc3c(c2s1)CCCC3,active: 10 µM,–
S=C(/N=c1/sccn1Cc1ccccc1)NC1CC1,"inconclusive: 15.8 µM [inhibitor, partial curve, poor fit]",–
Cc1csc(Sc2nc3c(c(=O)[nH]c(=O)n3C)n2Cc2ccccc2Cl)n1,"inconclusive: 6.31 µM [inhibitor, single point]",–
CC1CC(C)(C)NC(=S)N1CCC(=O)NCc1ccc(Cl)cc1 (configuration not stated),"inconclusive: 35.5 µM [inhibitor, single point]",–
Cc1nn(C)c(C)c1S(=O)(=O)N(CC(=O)NCc1cccs1)c1ccc(C(C)C)cc1,"inconclusive: 35.5 µM [activator, single point]",–
CCCCc1nc2n[nH]c(N)c2c2c1CSC(C)(C)C2,"inconclusive: 3.55 µM [inhibitor, single point]",–
S=c1nc(Cc2ccccc2)[nH]c2ccccc12,active: 2.82 µM,–
O=C(c1cnc2n(c1=O)CCS2)N1CCN(c2ccc(Cl)c(Cl)c2)CC1,"inconclusive: 17.8 µM [activator, single point]",–
Cn1c(=O)n(Cc2ccccc2Cl)c(=O)c2c1[nH]c(=S)n2C,inactive,–
CC1=NN(C(N)=S)C(=O)C1N=Nc1ccc(O)cc1 (configuration not stated),active: 3.98 µM,–
Cc1ccc(/C=N\NC(=O)Cn2nnc3ccccc32)o1,"inconclusive: 6.31 µM [inhibitor, single point]",–
O=C(CCCN1C(=O)c2ccccc2C1=O)Nc1nnc(C2CC2)s1,"inconclusive: 1.78 µM [activator, full curve, poor fit]",–
COc1cccc(NC(=O)CCSc2ccc3ccccc3n2)c1,inactive,–

# Grouped by structure, the entries above with an aryl thioether with sulfur outside any ring.
SMILES,Potency,"activity change, negative = inhibition"
Cc1csc(Sc2nc3c(c(=O)[nH]c(=O)n3C)n2Cc2ccccc2Cl)n1,"inconclusive: 6.31 µM [inhibitor, single point]",–
COc1cccc(NC(=O)CCSc2ccc3ccccc3n2)c1,inactive,–

# (next part)

SMILES,Potency,"activity change, negative = inhibition"
O=S(=O)(NCc1ccccn1)C(F)(F)F,active: 1.41 µM,–
CCOC(=O)c1c(NC2=NS(=O)(=O)c3ccccc32)sc2c1CCCCC2,"inconclusive: 12.6 µM [activator, partial curve]",–
Cc1ccccc1C(=O)NNC(=S)NC(=O)c1cccnc1,active: 11.2 µM,–
O=C(CNC(=S)N(Cc1ccccc1)Cc1ccccc1F)NCCc1ccccc1,active: 12.6 µM,–
Cc1ccc(OC(=O)c2ccc([N+](=O)[O-])cc2Cl)cn1,inactive,–
Cc1nc2ccccc2c(=O)n1/N=C/c1ccc([N+](=O)[O-])o1,"inconclusive: 12.6 µM [inhibitor, single point]",–
CCN(CC)C(=O)c1oc2ccc(S(=O)(=O)N3CC(C)CC(C)C3)cc2c1C (configuration not stated),"inconclusive: 5.62 µM [activator, partial curve]",–
CCOC(=O)c1cnc(-n2nc(C)cc2C)nc1NNc1nc(C)cc(C)n1,active: 3.98 µM,–
O=C(CN1CCCCC1)NNc1nc(-c2ccccc2)c2cc(Cl)ccc2n1,active: 5.01 µM,–
Cc1ccc(-n2nnnc2SCC(=O)c2cc(C)n(-c3cc(C)on3)c2C)c(C)c1,"inconclusive: 3.98 µM [inhibitor, full curve, poor fit]",–
OC(c1ccccc1)(C1CCCCC1)C(CN1CCOCC1)c1ccccc1 (configuration not stated),"inconclusive: 0.398 µM [activator, full curve, poor fit]",–
O=C(NCc1ccc(C(F)(F)F)cc1)C1CC(c2ccccc2[N+](=O)[O-])=NO1 (configuration not stated),"inconclusive: 10 µM [activator, partial curve]",–
CC1(C)CC(=O)C2=C(C1)Nc1ccccc1NC2c1ccc(F)c(F)c1 (configuration not stated),inactive,–
O=C(NCCNc1ccccc1[N+](=O)[O-])c1cc(F)c(F)cc1Cl,"inconclusive: 1.26 µM [activator, full curve, poor fit]",–
COc1ccc(-n2c(=O)c(CCc3ccccc3)nc3cnc(N4CCNCC4)nc32)cc1,"inconclusive: 35.5 µM [inhibitor, single point]",–
COc1cc(C(=O)Nc2nccs2)ccc1OCc1c(C)noc1C,"inconclusive: 10 µM [inhibitor, partial curve]",–
Cc1ccc(N2CCN(C(=O)C3CCC(=O)N(Cc4ccc(Cl)cc4)C3)CC2)c(C)c1 (configuration not stated),"inconclusive: 35.5 µM [activator, single point]",–
c1ccc(CN2c3ccccc3-c3nc4ccccc4n3C2c2ccccn2)cc1 (configuration not stated),active: 15.8 µM,–
NNC(=O)c1ccc(COc2cccc3ccccc23)cc1,"inconclusive: 22.4 µM [inhibitor, single point]",–
CCc1ccc(C(=O)Nc2cccc(-c3nn[nH]n3)c2)s1,inactive,–
COC(=O)n1c(=O)oc2ccc(S(=O)(=O)N3CCCCC3)cc21,"inconclusive: 0.224 µM [activator, full curve, poor fit]",–
Cc1cc(C(=O)NC2CC(C)(C)Cc3c2cnn3-c2cccc(F)c2)nn1C (configuration not stated),inactive,–
CC(/C=N/n1c(COc2ccccc2)n[nH]c1=S)=C\c1ccco1,active: 7.08 µM,–
Cc1ccc(-c2cc(-c3ccccc3Cl)[nH]n2)c(O)c1,"inconclusive: 7.94 µM [inhibitor, partial curve, poor fit]",–
O=c1cc(CSc2nnc(Nc3ccccc3)s2)nc2sccn12,"inconclusive: 17.8 µM [activator, single point]",–
CCC(C(=O)Nc1ccc2c(c1)OCCO2)n1nnc2ccccc2c1=O (configuration not stated),inactive,–

SMILES,Potency,"activity change, negative = inhibition"
Cc1ccc(OCC(=O)NNC(=S)NC(=O)C2CCCCC2)c(C)c1,active: 10 µM,–
CCN(CC)S(=O)(=O)c1cccc(NC(=S)NC(=O)/C=C/c2ccc(S(=O)(=O)N3CCOCC3)cc2)c1,"inconclusive: 10 µM [inhibitor, partial curve]",–
Cc1nnc(NC(=O)CSc2nccn2-c2cccc(C)c2C)s1,active: 10 µM,–
CCc1ccc(NC(=S)NC2CC3CCCC(C2)N3Cc2ccccc2)cc1 (configuration not stated),active: 7.08 µM,–
COc1ccc(NC(=O)CSc2nc3ccccc3c(=O)n2CCCC(=O)NCC2CCCO2)c(OC)c1 (configuration not stated),"inconclusive: 20 µM [activator, single point]",–
CC(C)(C)c1ccc(OCCCC(=O)NC2=NCCS2)cc1,"inconclusive: 20 µM [inhibitor, single point]",–
CC(C)NC(=S)N/N=C/c1cccs1,active: 0.794 µM,–
COCCN(C(=O)CSc1nnc(-c2cccs2)n1N)c1c(N)n(Cc2ccccc2)c(=O)[nH]c1=O,inactive,–
COC(=O)CSc1nc2ccc(NC(C)=O)cc2s1,inactive,–
COc1ccccc1N1CCN(C(c2cccs2)C(C)NC(=O)c2cccs2)CC1 (configuration not stated),"inconclusive: 0.355 µM [activator, single point]",–
CC(=O)N1c2ccc(S(=O)(=O)N3CCC(C(=O)Nc4cccc(C(F)(F)F)c4)CC3)cc2CC1C (configuration not stated),inactive,–
CCc1ccc2c(c1)cc(CN(C(=S)Nc1ccccc1C)C1CC1)c1nnnn12,"inconclusive: 0.141 µM [inhibitor, full curve]",–
COC(=O)n1c(=O)oc2ccccc21,inactive,–
Cc1cc(C(=O)Nc2ccccn2)no1,–,inactive: 7.07% [at 0.365 µM]
Cc1cccc(C2c3[nH]c4ccccc4c3CCN2C(=O)c2ocnc2C)n1 (configuration not stated),inactive,–
Cc1ccc(CS(=O)Cc2ccc(C(=O)N3CCOCC3)o2)cc1 (configuration not stated),inactive,–
CC(=O)Nc1ccc(S(=O)(=O)NNC(=S)NCC2CCCO2)cc1 (configuration not stated),"inconclusive: 17.8 µM [inhibitor, single point]",–
CCN(CC)c1ccc(/C=N/Nc2nc3ccccc3[nH]2)cc1,active: 3.16 µM,–
O=c1cc(-c2ccc(O)cc2)oc2cc(O[C@H]3OC(CO)C(O)C(O)C3O)cc(O)c12 (some centres not stated),inactive,–
Cc1csc2nc(CSc3ccc(Cl)cc3)cn12,inactive,–
Cc1nc(SCc2c(F)cccc2Cl)n[nH]1,"inconclusive: 3.55 µM [inhibitor, single point]",–
COc1ccc2nc3sc(C(=O)NCc4cccs4)c(N)c3cc2c1,"inconclusive: 35.5 µM [inhibitor, single point]",–
Cc1cccc(-n2cc(C(=O)O)c(=O)cc2C)c1,inactive,–
Cc1[nH]c(=S)c(C#N)c(-c2ccco2)c1C(=O)N(C)C,"inconclusive: 3.55 µM [inhibitor, single point]",–
COc1ccc(Cc2nnc(NC(=O)CSc3ccc(C)cc3)s2)cc1,"inconclusive: 15.8 µM [inhibitor, single point]",–

# A draw from above in order of molecular weight, high to low.
SMILES,Potency,"activity change, negative = inhibition"
CC(=O)N1c2ccc(S(=O)(=O)N3CCC(C(=O)Nc4cccc(C(F)(F)F)c4)CC3)cc2CC1C (configuration not stated),inactive,–
CCc1ccc2c(c1)cc(CN(C(=S)Nc1ccccc1C)C1CC1)c1nnnn12,"inconclusive: 0.141 µM [inhibitor, full curve]",–
CCc1ccc(C(=O)Nc2cccc(-c3nn[nH]n3)c2)s1,inactive,–

# Reference: PubChem BioAssay AID2551 (National Center for Advancing Translational Sciences (NCATS), 2010)
